Results: paper PMC5689596
These are yes or no findings as the source states them, for the method shown. Binding seen in cells or lysates may run through a third protein. Some entries that bind do so weakly or less than the wild type. Sequences can lack the tags named with a protein.

B1: Flag labeled wild type Mkrn3 (protein, UniProt Q60764 1-544)
chain: MEESTAPIEAHAAAGAEAGAEGGEGVSVPPPPQFEAAGASAGVSSAPLQQASGLAPLLVTPGPAIRRAASLRPAPAEGGGARSGPERNSGSWTKQILCRYYLHGQCKEGDNCRYSHDLSGRRRSRGGQDAQPRASADRGPKMATRWEPPTQEVAEAPPAASSSSLPLIGSAAERGFTEAEIDNAGIRSAAERGFSEAEIDNASLAAGAAAGAGAEGWEGAIEFVPGQPYRGRMVPPHGPEAPLQSPAIEREHMAMGMGMPMPVPMPMPVPMPVPMPLPLCRYAARGQCLRGDRCAYPHGEICDMCGQQALHPWDAAQQEAHRRACVEAHERDMELSFAVQRSMDKVCGICMEVVYEKADPSDRRFGILFSCNHTYCLRCIRRWRSATQFENRISKSCPQCRVSSGFVIPSEFWVEEEEEKEKLVQQYKEGMSQKACRYFAGGLGHCPFGEFCFYKHEYPEGWRDQPPRPDGGGSSSAYWHQVLEPVQLREGNVLFKSRKKEHSVLRLANQLLKKLLCLRGSSSFSDDRWLLLQYQLEEYFSLNL
B2: Makorin ring finger protein 3 (Mkrn3), endogenous in mouse hypothalamus (protein, UniProt Q60764 1-544)
chain: B1 chain
B3: Flag labeled mutant Mkrn3 without C3HC4 Ring finger motif (347-401) (protein, UniProt Q60764)
chain: MEESTAPIEAHAAAGAEAGAEGGEGVSVPPPPQFEAAGASAGVSSAPLQQASGLAPLLVTPGPAIRRAASLRPAPAEGGGARSGPERNSGSWTKQILCRYYLHGQCKEGDNCRYSHDLSGRRRSRGGQDAQPRASADRGPKMATRWEPPTQEVAEAPPAASSSSLPLIGSAAERGFTEAEIDNAGIRSAAERGFSEAEIDNASLAAGAAAGAGAEGWEGAIEFVPGQPYRGRMVPPHGPEAPLQSPAIEREHMAMGMGMPMPVPMPMPVPMPVPMPLPLCRYAARGQCLRGDRCAYPHGEICDMCGQQALHPWDAAQQEAHRRACVEAHERDMELSFAVQRSMDKVVSSGFVIPSEFWVEEEEEKEKLVQQYKEGMSQKACRYFAGGLGHCPFGEFCFYKHEYPEGWRDQPPRPDGGGSSSAYWHQVLEPVQLREGNVLFKSRKKEHSVLRLANQLLKKLLCLRGSSSFSDDRWLLLQYQLEEYFSLNL

How the values were obtained:
[1] = molecular target: T1, neural pentraxin-1 precursor (Nptx1), endogenous in mouse hypothalamus (mouse (endogenous in hypothalamus)) (UniProt Q62443); experiment: co-IP; Nptx1-IP from hypothalamus lysate of 4-, 6- and 10-week old mice given Flag labeled Mkrn3 at 3 weeks; Mkrn3 detected by blot; normalised to equal Nptx1
T1 sequence: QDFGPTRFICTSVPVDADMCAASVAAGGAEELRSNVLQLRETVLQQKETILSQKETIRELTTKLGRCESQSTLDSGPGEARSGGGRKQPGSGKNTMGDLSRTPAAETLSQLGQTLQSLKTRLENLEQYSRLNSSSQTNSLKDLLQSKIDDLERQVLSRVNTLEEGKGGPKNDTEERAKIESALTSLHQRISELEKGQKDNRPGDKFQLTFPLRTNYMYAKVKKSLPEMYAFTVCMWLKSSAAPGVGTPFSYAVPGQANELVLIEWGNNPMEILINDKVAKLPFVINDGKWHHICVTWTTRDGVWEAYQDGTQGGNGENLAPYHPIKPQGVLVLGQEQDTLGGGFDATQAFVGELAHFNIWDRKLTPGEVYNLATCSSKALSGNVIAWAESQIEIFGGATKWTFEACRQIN

[2] = molecular target: T1, neural pentraxin-1 precursor (Nptx1), endogenous in mouse hypothalamus (mouse (endogenous in hypothalamus)); experiment: co-IP; hypothalamus lysate of 4-week old mice given Flag labeled wtMkrn3 or mtMkrn3; Flag or Nptx1 detected; lysis 50 mM NaCl, 50 mM Tris pH 7.4, 1% NP-40, washes with 250 mM NaCl, 4°C
[3] = molecular target: T2, Flag labeled wild type Nptx1 (mouse) (UniProt Q62443); experiment: co-IP; hypothalamus lysate of 4-week old mice given Flag labeled wtNptx1 or mtNptx1; IP and blot for Mkrn3; lysis 50 mM NaCl, 50 mM Tris pH 7.4, 1% NP-40, washes with 250 mM NaCl, 4°C
T2 sequence: T1 sequence

| Binder | binding [1] | binding [2] | binding [3] |
| --- | --- | --- | --- |
| B1 | binds | binds | – |
| B2 | – | – | binds |
| B3 | – | no binding | – |
